Test results from PubChem BioAssay AID504467 (National Center for Advancing Translational Sciences (NCATS), 2011).
In all, about 330,000 compounds went through this assay and about 7,700 (2.3%) were called active. The inconclusive results got no clear call from the source; some entries with a clear call stand among them for comparison. Calls follow the shape of the dose curve; as a rule, active = well fitted inhibition curve with a large enough effect; inconclusive = small, poorly fitted or top-dose-only effect, or effect the other way; inactive = flat fitted curve, though single readings scatter. Potencies of inconclusive entries are doubtful fits and often do not repeat.

assay: qHTS screen for small molecules that inhibit ELG1-dependent DNA repair in human embryonic kidney (HEK293T) cells expressing luciferase-tagged ELG1; conditions: HEK293T ELG1-luciferase reporter, luminescence, 16 h, DNA damage induced by 5-fluorouridine; activity change, negative = inhibition: at 46.1 µM (top of the series); also: nearly all actives have a fitted effect of over 55% in size
Summary of the method: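 HEK293T cells expressing luciferase-tagged ELG1 (2,000/well) received 5-Fluorouridine plus compound or DMSO for 16 hr at 37 °C. Luciferase was read by ONE-Glo luminescence after 30 min at room temperature.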
% is scaled to controls: 0 for no effect and ±100 for the full control effect; potency is read from the fitted curve at half-maximal effect.

| SMILES | Potency | activity change, negative = inhibition |
| --- | --- | --- |
| O=[N+]([O-])c1cc2c(c(CSc3nnc(Nc4ccccc4)s3)c1)OCOC2 | active: 4.61 µM | – |
| CC(C)Cc1nn2c(N)c(/C=C3\C=Nc4ccccc43)c(=O)nc2s1 | – | inactive: -9.39% |
| COc1ccc(C(=O)NCC2(c3ccccc3)CCOCC2)cc1 | inconclusive: 7.3 µM [activator, partial curve] | – |
| CCC(C(=O)NCCc1ccc(OC)cc1OC)n1nc(C)n2c(cc3occc32)c1=O (stereo unspecified) | inconclusive: 25.9 µM [inhibitor, single point] | – |
| COc1ccc(C(=O)COC(=O)CNC(=O)c2ccc(Cl)cc2Cl)c(OC)c1 | – | inactive: -16.5% |
| C=CCOC(=O)C1=C(C)NC(SCC(=O)N(CC)CC)=C(C#N)C1c1ccco1 (stereo unspecified) | active: 8.2 µM | – |
| CC(=O)N1CCN(c2nc3ccc(Br)cc3s2)CC1 | inconclusive: 6.51 µM [activator, partial curve] | – |
| O=C(CCl)N(c1ccccc1)c1ccccc1 | active: 20.6 µM | – |
| COc1ccc(NS(=O)(=O)c2ccc(NN=Cc3ccc(C(=O)O)cc3)c([N+](=O)[O-])c2)cc1 | inconclusive: 29.1 µM [activator, partial curve, poor fit] | – |
| COc1ccc2c(c1)C(=NN)c1cc(OC)ccc1-2 | – | inactive: 22.5% |
| Cn1c(/C(C#N)=C(\O)c2ccc([N+](=O)[O-])cc2)nc2ccccc21 | – | inactive: -10% |
| CCS(=O)(=O)N1Cc2ccccc2CC1C(=O)Nc1ccc(F)cc1 (stereo unspecified) | inconclusive: 23.1 µM [activator, partial curve, poor fit] | – |
| N#Cc1ccc(OCC(=O)N2CCCC2=O)cc1 | – | inactive: 0.8% |
| O=C(c1ccccc1)c1c(O)nc(-c2ccccc2)n(-c2ccccc2)c1=O | inconclusive: 18.4 µM [activator, partial curve, poor fit] | – |
| Nc1ncnc2oc(-c3ccco3)c(-c3ccco3)c12 | inconclusive: 18.4 µM [inhibitor, single point] | – |
| c1ccc2nc(N3CCOCC3)cnc2c1 | inconclusive: 16.4 µM [activator, partial curve] | – |
| Cc1[nH]c2ccccc2c1C(=O)COC(=O)c1c(-c2c(F)cccc2Cl)noc1C | inconclusive: 23.1 µM [inhibitor, single point] | – |
| CC(C)OCc1ccc(C(=O)N2CCN(CC(=O)N3CCCC3)CC2)cc1 | – | inactive: 7.37% |
| O=c1c2cn[nH]c2[nH]c(=S)n1-c1ccccc1 | – | inactive: 10.8% |
| O=C(NCCS(=O)(=O)NCc1ccc(Cl)cc1)c1ccccc1 | inconclusive: 0.231 µM [activator, single point] | – |
| O=C(c1noc2c1CCCC2)N1CCN(c2ccccc2)CC1 | – | inactive: 10.3% |

Quoted at random: 2 records from the list, in no set order.

| SMILES | Potency | activity change, negative = inhibition |
| --- | --- | --- |
| Cc1[nH]c2ccccc2c1C(=O)COC(=O)c1c(-c2c(F)cccc2Cl)noc1C | inconclusive: 23.1 µM [inhibitor, single point] | – |
| COc1ccc2c(c1)C(=NN)c1cc(OC)ccc1-2 | – | inactive: 22.5% |
